The list shows a part of the results.
compound: c1cc(OCCN2CCCCC2)cc(-c2n[nH]c3ccc(-c4nnc[nH]4)cc23)c1; assay: log2 fold change, soluble protein after heating vs DMSO (PISA); higher = thermal stabilisation; K562 cells, 10 uM, 30 min; active = over 0.2 and 3.5 SD of the protein, either way, in both replicates (recomputed)
How it was run: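 K562 cells at 2×10^6 cells/mL were exposed to 10 μM compound for 30 min, then aliquots were heated for 3 min across 48°C-58°C, pooled, and extracted in PBS containing 0.5% NP-40 at 4°C. The supernatant after 21,000xg for 90 min was taken as soluble protein and measured by TMTpro 16plex LC-MS/MS with channel sums equalised. Thermal stability is reported relative to control samples, with values from duplicates. Fold changes are given on a log2 scale.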

Sequences of proteins named here, by UniProt entry; tags and fusion partners are left off. A change or cut given only in a name is not applied to a line headed by its entry.
UniProt P01591, whole entry, looked up: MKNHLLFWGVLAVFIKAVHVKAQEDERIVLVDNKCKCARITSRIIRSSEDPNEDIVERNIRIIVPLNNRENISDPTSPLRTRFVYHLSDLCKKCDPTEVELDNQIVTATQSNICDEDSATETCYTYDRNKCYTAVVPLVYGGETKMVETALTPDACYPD
UniProt Q96L93: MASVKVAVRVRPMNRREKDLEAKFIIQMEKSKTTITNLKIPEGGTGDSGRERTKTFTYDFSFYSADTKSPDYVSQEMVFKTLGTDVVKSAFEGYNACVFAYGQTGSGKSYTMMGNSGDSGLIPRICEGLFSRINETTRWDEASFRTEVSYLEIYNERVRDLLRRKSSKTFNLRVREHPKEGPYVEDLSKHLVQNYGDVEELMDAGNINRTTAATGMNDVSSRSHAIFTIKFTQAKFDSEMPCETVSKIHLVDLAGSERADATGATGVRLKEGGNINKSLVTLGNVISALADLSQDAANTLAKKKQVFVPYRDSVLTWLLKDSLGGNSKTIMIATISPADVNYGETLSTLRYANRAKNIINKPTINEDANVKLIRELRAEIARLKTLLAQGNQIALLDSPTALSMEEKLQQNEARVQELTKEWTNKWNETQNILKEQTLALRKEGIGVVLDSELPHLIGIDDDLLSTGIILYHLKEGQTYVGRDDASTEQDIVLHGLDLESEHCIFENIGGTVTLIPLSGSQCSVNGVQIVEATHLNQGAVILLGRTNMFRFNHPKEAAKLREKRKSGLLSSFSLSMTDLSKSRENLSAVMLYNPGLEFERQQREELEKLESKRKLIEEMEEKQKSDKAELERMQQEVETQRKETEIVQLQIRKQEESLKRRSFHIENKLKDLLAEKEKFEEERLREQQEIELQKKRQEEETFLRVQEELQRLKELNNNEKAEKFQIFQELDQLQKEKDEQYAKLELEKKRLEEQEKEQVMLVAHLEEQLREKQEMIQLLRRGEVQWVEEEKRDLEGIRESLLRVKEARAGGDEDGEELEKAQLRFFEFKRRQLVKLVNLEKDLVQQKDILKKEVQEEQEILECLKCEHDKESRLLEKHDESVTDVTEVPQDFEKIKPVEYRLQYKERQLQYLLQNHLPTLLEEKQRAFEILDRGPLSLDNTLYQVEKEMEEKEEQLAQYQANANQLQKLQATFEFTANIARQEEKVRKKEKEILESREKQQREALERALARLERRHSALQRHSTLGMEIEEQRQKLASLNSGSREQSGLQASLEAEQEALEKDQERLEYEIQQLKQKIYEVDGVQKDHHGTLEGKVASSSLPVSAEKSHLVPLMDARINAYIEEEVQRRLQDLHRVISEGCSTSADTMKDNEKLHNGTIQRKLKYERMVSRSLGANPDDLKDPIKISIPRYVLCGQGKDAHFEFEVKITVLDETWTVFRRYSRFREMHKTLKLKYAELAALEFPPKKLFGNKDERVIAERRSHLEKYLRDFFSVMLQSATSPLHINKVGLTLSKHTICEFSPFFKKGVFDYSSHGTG
UniProt Q8N4N3: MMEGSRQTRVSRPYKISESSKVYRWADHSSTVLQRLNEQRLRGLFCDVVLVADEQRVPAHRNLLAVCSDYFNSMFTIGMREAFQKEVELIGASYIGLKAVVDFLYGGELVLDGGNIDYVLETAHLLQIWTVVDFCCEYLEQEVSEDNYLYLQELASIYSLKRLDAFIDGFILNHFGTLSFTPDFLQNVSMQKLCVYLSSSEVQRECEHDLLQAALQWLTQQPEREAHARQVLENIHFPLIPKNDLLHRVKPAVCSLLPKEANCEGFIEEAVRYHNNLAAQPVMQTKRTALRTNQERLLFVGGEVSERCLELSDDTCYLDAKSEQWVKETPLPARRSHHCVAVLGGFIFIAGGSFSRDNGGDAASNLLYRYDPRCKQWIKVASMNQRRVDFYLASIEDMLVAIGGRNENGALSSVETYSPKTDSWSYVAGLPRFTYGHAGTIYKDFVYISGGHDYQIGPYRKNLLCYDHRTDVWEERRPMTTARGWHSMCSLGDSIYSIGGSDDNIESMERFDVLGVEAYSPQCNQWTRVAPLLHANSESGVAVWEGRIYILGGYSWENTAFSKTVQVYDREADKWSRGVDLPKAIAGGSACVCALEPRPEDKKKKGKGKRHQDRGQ
UniProt O43240: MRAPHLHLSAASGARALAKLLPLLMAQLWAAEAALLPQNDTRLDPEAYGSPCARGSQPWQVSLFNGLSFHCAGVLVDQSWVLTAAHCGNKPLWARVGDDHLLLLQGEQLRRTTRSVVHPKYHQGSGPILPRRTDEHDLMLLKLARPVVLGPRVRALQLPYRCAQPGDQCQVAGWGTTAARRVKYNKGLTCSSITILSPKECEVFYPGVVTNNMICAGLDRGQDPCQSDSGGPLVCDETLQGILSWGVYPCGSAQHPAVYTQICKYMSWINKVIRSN
UniProt O95239: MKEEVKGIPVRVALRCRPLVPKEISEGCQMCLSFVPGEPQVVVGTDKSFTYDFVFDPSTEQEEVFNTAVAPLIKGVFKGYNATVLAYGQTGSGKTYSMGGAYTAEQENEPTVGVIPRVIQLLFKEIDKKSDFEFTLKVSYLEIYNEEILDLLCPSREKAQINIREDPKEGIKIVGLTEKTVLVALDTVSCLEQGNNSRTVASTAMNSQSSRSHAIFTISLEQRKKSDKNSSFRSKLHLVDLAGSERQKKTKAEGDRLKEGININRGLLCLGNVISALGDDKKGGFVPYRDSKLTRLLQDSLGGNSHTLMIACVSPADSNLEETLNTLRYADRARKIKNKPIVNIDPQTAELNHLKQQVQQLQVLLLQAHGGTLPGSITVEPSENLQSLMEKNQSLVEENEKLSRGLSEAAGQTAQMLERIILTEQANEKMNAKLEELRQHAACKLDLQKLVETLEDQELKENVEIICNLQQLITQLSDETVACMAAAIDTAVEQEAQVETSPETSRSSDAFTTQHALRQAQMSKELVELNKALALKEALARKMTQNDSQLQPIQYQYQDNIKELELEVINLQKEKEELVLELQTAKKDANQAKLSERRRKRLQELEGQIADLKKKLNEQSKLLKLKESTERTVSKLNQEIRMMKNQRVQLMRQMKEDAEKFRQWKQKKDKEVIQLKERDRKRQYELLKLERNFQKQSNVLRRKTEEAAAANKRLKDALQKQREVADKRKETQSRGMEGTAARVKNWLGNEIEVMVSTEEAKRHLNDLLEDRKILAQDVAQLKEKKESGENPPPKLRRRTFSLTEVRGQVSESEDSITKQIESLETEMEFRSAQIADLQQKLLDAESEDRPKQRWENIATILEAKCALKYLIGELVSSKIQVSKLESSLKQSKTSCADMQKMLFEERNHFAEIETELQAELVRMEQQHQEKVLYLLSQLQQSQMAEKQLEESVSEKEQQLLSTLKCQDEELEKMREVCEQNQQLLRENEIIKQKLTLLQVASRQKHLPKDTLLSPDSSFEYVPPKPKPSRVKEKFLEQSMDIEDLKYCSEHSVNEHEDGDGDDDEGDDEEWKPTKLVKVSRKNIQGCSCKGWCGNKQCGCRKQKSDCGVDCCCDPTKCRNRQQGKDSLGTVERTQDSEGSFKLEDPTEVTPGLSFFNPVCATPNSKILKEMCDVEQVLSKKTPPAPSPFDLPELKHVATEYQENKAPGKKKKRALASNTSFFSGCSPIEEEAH
UniProt Q13601: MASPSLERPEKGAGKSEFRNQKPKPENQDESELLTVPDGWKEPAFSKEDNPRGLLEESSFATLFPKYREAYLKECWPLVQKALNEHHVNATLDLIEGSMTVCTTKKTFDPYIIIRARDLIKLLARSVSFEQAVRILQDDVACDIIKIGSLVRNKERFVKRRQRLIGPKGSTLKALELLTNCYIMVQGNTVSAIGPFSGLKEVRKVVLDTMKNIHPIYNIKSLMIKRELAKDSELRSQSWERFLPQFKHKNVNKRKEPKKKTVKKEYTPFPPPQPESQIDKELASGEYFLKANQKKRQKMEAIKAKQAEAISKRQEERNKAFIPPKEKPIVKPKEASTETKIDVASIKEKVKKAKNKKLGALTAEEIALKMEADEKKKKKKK
UniProt Q92845: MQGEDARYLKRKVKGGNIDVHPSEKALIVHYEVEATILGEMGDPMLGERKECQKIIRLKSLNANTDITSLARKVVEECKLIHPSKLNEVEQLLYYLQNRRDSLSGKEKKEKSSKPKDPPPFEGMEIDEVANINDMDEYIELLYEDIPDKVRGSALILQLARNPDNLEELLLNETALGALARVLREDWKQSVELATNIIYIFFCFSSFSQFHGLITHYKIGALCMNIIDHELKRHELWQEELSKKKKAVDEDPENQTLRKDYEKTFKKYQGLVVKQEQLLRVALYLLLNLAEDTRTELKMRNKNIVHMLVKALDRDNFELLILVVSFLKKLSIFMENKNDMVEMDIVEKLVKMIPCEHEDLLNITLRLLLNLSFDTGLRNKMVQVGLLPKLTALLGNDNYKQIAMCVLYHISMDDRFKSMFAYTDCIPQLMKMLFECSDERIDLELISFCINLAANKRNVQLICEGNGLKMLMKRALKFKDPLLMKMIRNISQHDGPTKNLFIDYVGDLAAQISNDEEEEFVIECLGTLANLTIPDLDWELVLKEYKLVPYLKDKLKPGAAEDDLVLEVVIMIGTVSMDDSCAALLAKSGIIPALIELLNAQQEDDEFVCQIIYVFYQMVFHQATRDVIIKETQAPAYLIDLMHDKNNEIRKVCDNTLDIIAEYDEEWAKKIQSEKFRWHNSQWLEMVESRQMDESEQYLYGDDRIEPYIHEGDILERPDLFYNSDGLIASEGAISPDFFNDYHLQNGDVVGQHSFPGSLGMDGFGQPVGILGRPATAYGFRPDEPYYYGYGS
UniProt O60333: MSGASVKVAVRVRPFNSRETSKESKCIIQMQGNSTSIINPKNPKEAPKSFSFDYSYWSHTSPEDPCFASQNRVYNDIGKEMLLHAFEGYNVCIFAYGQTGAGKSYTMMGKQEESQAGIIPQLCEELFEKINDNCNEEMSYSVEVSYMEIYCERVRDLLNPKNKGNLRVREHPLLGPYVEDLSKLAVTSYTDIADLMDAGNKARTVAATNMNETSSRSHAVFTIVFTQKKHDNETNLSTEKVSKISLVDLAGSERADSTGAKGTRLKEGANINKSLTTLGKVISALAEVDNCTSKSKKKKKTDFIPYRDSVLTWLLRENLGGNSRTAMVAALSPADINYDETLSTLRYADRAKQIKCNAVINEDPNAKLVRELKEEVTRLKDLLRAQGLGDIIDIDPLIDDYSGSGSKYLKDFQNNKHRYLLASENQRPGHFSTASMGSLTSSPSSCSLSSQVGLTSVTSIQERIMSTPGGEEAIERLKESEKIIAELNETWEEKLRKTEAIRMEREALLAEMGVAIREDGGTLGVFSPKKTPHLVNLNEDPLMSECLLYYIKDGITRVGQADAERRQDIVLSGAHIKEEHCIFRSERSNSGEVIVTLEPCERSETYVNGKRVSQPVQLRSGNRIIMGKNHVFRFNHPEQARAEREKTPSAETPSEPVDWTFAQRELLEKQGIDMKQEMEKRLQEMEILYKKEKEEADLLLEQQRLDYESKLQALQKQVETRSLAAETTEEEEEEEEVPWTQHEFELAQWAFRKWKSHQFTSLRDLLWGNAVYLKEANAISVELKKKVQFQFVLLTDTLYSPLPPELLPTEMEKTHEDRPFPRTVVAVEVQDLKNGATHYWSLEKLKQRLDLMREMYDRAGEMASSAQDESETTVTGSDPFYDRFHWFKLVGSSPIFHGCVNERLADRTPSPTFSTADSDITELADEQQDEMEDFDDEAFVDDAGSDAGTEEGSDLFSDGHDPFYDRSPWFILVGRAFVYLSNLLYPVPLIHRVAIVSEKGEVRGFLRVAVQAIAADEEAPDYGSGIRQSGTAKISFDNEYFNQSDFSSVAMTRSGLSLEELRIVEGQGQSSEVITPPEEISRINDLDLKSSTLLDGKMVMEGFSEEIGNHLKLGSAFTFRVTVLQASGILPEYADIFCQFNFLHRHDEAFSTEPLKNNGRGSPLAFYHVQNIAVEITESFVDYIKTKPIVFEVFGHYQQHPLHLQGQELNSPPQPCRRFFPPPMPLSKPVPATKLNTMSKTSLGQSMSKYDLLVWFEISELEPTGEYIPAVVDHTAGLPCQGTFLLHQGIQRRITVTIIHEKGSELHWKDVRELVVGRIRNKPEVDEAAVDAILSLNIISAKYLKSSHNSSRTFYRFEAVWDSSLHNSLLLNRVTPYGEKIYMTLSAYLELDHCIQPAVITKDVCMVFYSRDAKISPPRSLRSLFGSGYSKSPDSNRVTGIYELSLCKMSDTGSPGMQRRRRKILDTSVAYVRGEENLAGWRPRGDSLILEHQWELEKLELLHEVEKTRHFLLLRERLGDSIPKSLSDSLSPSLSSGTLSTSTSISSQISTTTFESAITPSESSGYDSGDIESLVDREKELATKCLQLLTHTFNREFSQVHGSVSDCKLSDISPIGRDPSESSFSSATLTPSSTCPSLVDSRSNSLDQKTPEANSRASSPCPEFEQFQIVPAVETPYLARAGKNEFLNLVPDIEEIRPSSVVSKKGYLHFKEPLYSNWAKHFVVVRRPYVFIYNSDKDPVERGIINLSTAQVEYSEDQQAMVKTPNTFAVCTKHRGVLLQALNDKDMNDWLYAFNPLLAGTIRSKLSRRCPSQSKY

log2 fold change, inactive:
KDM3A (UniProt Q9Y4C1) 0.035
JCHAIN (UniProt P01591) 0.517
KIF16B isoform 2 (UniProt Q96L93) 0
KLHL36 (UniProt Q8N4N3) -0.104
KLK10 (UniProt O43240) 0.577
KIF4A (UniProt O95239) -0.215
ITSN2 (UniProt Q9NZM3) -0.129
KRR1 (UniProt Q13601) -0.063
KALRN (UniProt O60229) 0.098
KIFAP3 (UniProt Q92845) -0.135
KIAA1755 (UniProt Q5JYT7) -0.03
KIF1B isoform 3 (UniProt O60333) -0.55
KIZ (UniProt Q2M2Z5) 0.045
KAT6B (UniProt Q8WYB5) -0.062

Quoted at random: 2 records from the list.
log2 fold change, inactive:
JCHAIN (UniProt P01591) 0.517
KALRN (UniProt O60229) 0.098

— the supplement of paper PMC10849652
